Values quoted from earlier work, collected in patent publication US8357692B2, “Methods of treatment of bone degenerative diseases” (Washington University, priority 2010, dated 2013).

Tested on: P. falciparum FCR-3
Settings: Table 1; cytotoxicity/antimalarial activity; cited from earlier work

First: O=C(C[C@H]1NCCC[C@@H]1O)Cn1cnc2ccccc2c1=O [compound 1, febrifugine]
Second: O=c1c2ccccc2ncn1CC(O)C[C@H]1NCCC[C@@H]1O (stereo partly drawn) [compound 8]
The selectivity of the first is lower: 243 for the first, 750 for the second.

First: O=c1c2ccccc2ncn1CC1(O)C[C@@H]2NCCC[C@@H]2O1 (stereo partly drawn) [compound 2, isofebrifugine]
Second: O=c1ccncn1CC1(O)C[C@@H]2NCCC[C@@H]2O1 (stereo partly drawn) [compound 13]
The selectivity of the first is lower: 53 for the first, 175 for the second.

In the case of `O=C(CC1NCCCC1=O)Cn1cnc2ccccc2c1=O` (stereo not drawn) [compound 7], the selectivity is given as 500.

For `O=c1c2ccccc2ccn1CC1(O)C[C@@H]2NCCC[C@@H]2O1` (stereo partly drawn) [compound 15], the selectivity is listed as over 3.
